Molecules are shown by their SMILES. ± gives the standard deviation of the averaged measurements. The list shows a part of the results.

The test system of this assay is APPdp1-6 iPSC-derived neurons. The assay is described as follows: pThr231Tau/total Tau ratio Z-score vs DMSO vehicle wells; higher = more pThr231Tau relative to total Tau. To be noted: 5 µM; treatment time 5 days.
For the compound `O=c1[nH]c(=O)n([C@H]2C[C@H](O)[C@@H](CO)O2)cc1F` [Prestw-1415], the “pThr231Tau/total Tau ratio Z-score” value is -1.52 ± 0.94.

In the case of `CCn1cc(C(=O)O)c(=O)c2cc(F)c(N3CCNC(C)C3)c(F)c21` (stereo not given) [Prestw-238], the “pThr231Tau/total Tau ratio Z-score” value is -0.52 ± 1.6. To `CS(=O)(=O)Nc1ccc([N+](=O)[O-])cc1Oc1ccccc1` [Prestw-194] belongs -0.362 ± 0.17; to `COc1cc(C)nc(-n2nc(C)cc2OC)n1` [Prestw-32], 0.241 ± 1.4; to `CNC(=C[N+](=O)[O-])NCCSCc1csc(CN(C)C)n1` [Prestw-921], 0.268 ± 0.74. Regarding `C[C@]12C=CC(=O)C=C1CC[C@@H]1[C@@H]2C(=O)C[C@@]2(C)[C@H]1CC[C@]2(O)C(=O)CO` [Prestw-77], the “pThr231Tau/total Tau ratio Z-score” value is 0.349 ± 1.1.

On to `CCOC(=O)CCC(=O)O[C@H]1[C@H](O[C@@H]2[C@@H](C)[C@H](O[C@H]3C[C@@](C)(OC)[C@@H](O)[C@H](C)O3)[C@@H](C)C(=O)O[C@H](CC)[C@@](C)(O)[C@H](O)[C@@H](C)C(=O)[C@H](C)C[C@@]2(C)O)O[C@H](C)C[C@@H]1N(C)C` [ERYTHROMYCIN ETHYLSUCCINATE    Therap cat:  Antibacterial], for which the “pThr231Tau/total Tau ratio Z-score” value came to 0.0969 ± 1.5. Regarding `Cc1ccc(S(=O)(=O)NCl)cc1`, the “pThr231Tau/total Tau ratio Z-score” value was -0.273 ± 0.004.

In the case of `C[C@@H]1O[C@@H]1P(=O)(O)O` [FOSPHOMYCIN, Antibiotic; interferes with cell wall synthesis], the “pThr231Tau/total Tau ratio Z-score” value is -0.792 ± 1.8. As to `C[C@@H]1CN(c2c(F)c(N)c3c(=O)c(C(=O)O)cn(C4CC4)c3c2F)C[C@H](C)N1` [Prestw-1343], the “pThr231Tau/total Tau ratio Z-score” value was -1.35 ± 1.1. The same measure for `CC[C@]12CCCN3CCc4c(n(c5ccccc45)C(=O)C1)[C@@H]32` [Prestw-607]: -1.24 ± 0.079; for `CCn1cc(C(=O)O)c(=O)c2cc(F)c(N3CCN(C)CC3)cc21` [Prestw-1303]: -1.11 ± 0.4; for `CC(=O)Nc1c(I)c(NC(C)=O)c(I)c(C(=O)O)c1I` [DIATRIZOIC ACID, radiopaque agent]: 0.171 ± 0.9. To `CCc1cc(C(N)=S)ccn1` [Prestw-526] belongs 1.48 ± 0.84; to `Cc1ccc(C(=O)Nc2ccc(S(=O)(=O)O)c3cc(S(=O)(=O)O)cc(S(=O)(=O)O)c23)cc1NC(=O)c1cccc(NC(=O)Nc2cccc(C(=O)Nc3cc(C(=O)Nc4ccc(S(=O)(=O)O)c5cc(S(=O)(=O)O)cc(S(=O)(=O)O)c45)ccc3C)c2)c1`, 1.41 ± 0.73.

Consider `CC(=O)Nc1ccc(S(=O)(=O)Nc2ccc([N+](=O)[O-])cc2)cc1` [SULFANITRAN    Therap cat: antibacterial], for which the “pThr231Tau/total Tau ratio Z-score” value was determined as 0.598 ± 0.23.

Take `CCC(=O)[C@@]1(C)[C@H](C)C[C@H]2[C@@H]3CCC4=CC(=O)C=C[C@]4(C)[C@H]3[C@@H](O)C[C@@]21C` [Prestw-1020]: the “pThr231Tau/total Tau ratio Z-score” value turned out to be 0.0917 ± 0.53. To `O=C(N/N=C/c1ccc([N+](=O)[O-])o1)c1ccc(O)cc1` [Prestw-555] belongs -4.01 ± 1.4; to `CN1CCN(C(c2ccccc2)c2ccc(Cl)cc2)CC1` (stereo not given) [Prestw-706], 0.652 ± 1.4. Regarding `NC(=O)c1ncn([C@@H]2O[C@H](CO)[C@@H](O)[C@H]2O)c1O`, the “pThr231Tau/total Tau ratio Z-score” value was determined as 1.33 ± 3.2. The same measure for `O=C1C=CC(=O)c2c1ccc1c2ccc2ccccc21` [Prestw-615]: -1.64 ± 0.52. Regarding `CC(C)(O/N=C(\C(=O)N[C@@H]1C(=O)N2C(C(=O)[O-])=C(C[n+]3ccccc3)CS[C@H]12)c1csc(N)n1)C(=O)O` [Prestw-489], the “pThr231Tau/total Tau ratio Z-score” value was -0.569 ± 1.2. In the case of `Cc1ccc(/C(=C\CN2CCCC2)c2ccccn2)cc1` [Prestw-262], the “pThr231Tau/total Tau ratio Z-score” value was -0.329 ± 0.71. To `Cc1c(Cl)cccc1Nc1ncccc1C(=O)O` [Prestw-1104] belongs 0.304 ± 1.4. To `C[C@H]1[C@H](NC(=O)/C(=N\OC(C)(C)C(=O)O)c2csc(N)n2)C(=O)N1S(=O)(=O)O` [Prestw-185] belongs -0.205 ± 1.9. The same measure for `C[C@H]1[C@H](NC(=O)/C(=N\OC(C)(C)C(=O)O)c2csc(N)n2)C(=O)N1S(=O)(=O)O` [AZTREONAM, antibacterial]: 0.344 ± 1.4; for `COc1cc(CNC(=O)CCCC/C=C\C(C)C)ccc1O`: 1.24 ± 0.81; for `CCc1c2c(nc3ccc(OC(=O)N4CCC(N5CCCCC5)CC4)cc13)-c1cc3c(c(=O)n1C2)COC(=O)[C@]3(O)CC` [Prestw-1494]: -0.69 ± 0.41.

Take `CN1CCC(=C2c3ccccc3C=Cc3ccccc32)CC1` [Prestw-103]: the “pThr231Tau/total Tau ratio Z-score” value was -0.498 ± 2. Consider `N=C(N)NC(=N)NCCc1ccccc1` [Prestw-179], for which the “pThr231Tau/total Tau ratio Z-score” value is -0.566 ± 0.75.

Turning to `CC(C)(C)NC[C@@H](O)COc1cccc2c1CCCC2=O` [Prestw-857], the “pThr231Tau/total Tau ratio Z-score” value was determined as 0.663 ± 0.46. The same measure for `CO[C@H]1/C=C/O[C@@]2(C)Oc3c(C)c(O)c4c(O)c(c(/C=N/N5CCN(C6CCCC6)CC5)c(O)c4c3C2=O)NC(=O)/C(C)=C\C=C\[C@H](C)[C@H](O)[C@@H](C)[C@@H](O)[C@@H](C)[C@H](OC(C)=O)[C@@H]1C` [Prestw-1157]: -1.17 ± 0.2; for `CC(C)(CO)[C@@H](O)C(=O)NCCC(=O)NCCSSCCNC(=O)CCNC(=O)[C@H](O)C(C)(C)CO`: 1.69 ± 1.8. `CN(C)[C@@H]1C(=O)C(C(=O)NCNCCCC[C@H](N)C(=O)O)=C(O)[C@@]2(O)C(=O)C3=C(O)c4c(O)cccc4[C@@](C)(O)[C@H]3C[C@@H]12` [Prestw-1000]: the “pThr231Tau/total Tau ratio Z-score” value is 0.765 ± 1.4. The same measure for `CN1CCN(CC/C=C2/c3ccccc3Sc3ccc(S(=O)(=O)N(C)C)cc32)CC1` [THIOTHIXENE    Therap cat:  Antipsychotic]: 0.701 ± 2.4.

The record behind these values is the supplement of paper PMC6414424.
